# Measured values from PubChem BioAssay AID1273 (Columbia University Molecular Screening Center, 2008).
# Some of the results follow. The main result of the screen is listed elsewhere. These columns were measured beside it and carry no call. The list favours compounds with an active or inconclusive main result.
# Experiment: inhibitors of insulin promoter-driven GFP, primary screen, imaging, TRM-6 cells (human fetal islet line), eGFP reporter, cell count (AID 1273;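 further: cells exposed to compound for 48 h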)
# Conditions: measured here: cell count, toxicity, at 2 µM, reporter expression induced with tamoxifen
row,SMILES,normalized cell count [%]
1,COCCN1C(=O)c2ccccc2C(C(=O)NCCN(C)C)C1c1ccc(F)cc1 (centres undefined),79.5
2,O=C(O)C1CCCCC1C(=O)Nc1ccc(Cl)cc1 (centres undefined),131
3,CCn1cc(Cl)c(C(=O)N2N=C(c3ccc4ccccc4c3)CC2c2ccccc2O)n1 (centres undefined),111
4,Cc1ccc(OCC(=O)N/N=C/c2cccn2C)cc1,43.1
5,CCc1c(C)[nH]c2ccc(C)cc2c1=O,72
6,CC(C)(C)CC(=O)NCc1ccc(F)cc1,26.4
7,Cc1cccc(C)c1NC(=O)COC(=O)Cc1ccsc1,237
8,CN1C(=O)/C(=C/C=C2\SCCN2C)N(C)C1=S,83.3
9,COc1cc(OC)c(S(=O)(=O)N2CCCCC2)cc1S(=O)(=O)N1CCCCC1,111
10,O=C(CCC(=O)c1cccs1)c1cccs1,123
11,C=CCN1CN(S(=O)(=O)c2cccs2)c2nc3ccccc3nc21,103
12,COc1ccc(CNC(=O)C2CCN(S(=O)(=O)N3CCOCC3)CC2)cc1,57
13,COc1ccc(S(=O)(=O)Nc2ccc(C)cc2)cc1OC,108
14,Cn1nc(C(=O)NCc2ccco2)c2ccccc2c1=O,87.7
15,C=CCNc1nc(S(=O)Cc2ccc(C)cc2)nc2c1CCCC2 (centres undefined),72.6
16,CC(=O)c1c(OC(=O)c2ccc(C)cc2)c2ccccc2n1C,0
17,CC1Cc2ccccc2N1C(=O)C12CCC(C)(C(=O)C1)C2(C)C (centres undefined),105

row,SMILES,normalized cell count [%]
1,CC(=O)c1cnc(-c2ccccc2Cl)s1,93.3
2,CCOc1ccc(OCCN2CCCCC2)cc1,85.9
3,COCCNC(=O)/C=C/c1c(Cl)cccc1Cl,92.1
4,COc1ccc(-c2[nH]ncc2C=O)cc1,131
5,Cc1ccc(C2=Nc3ccccc3N=C(C(Cl)Cl)C2)cc1,139
6,COC(=O)C1CCN(C(=O)C23CCC(C)(C(=O)O2)C3(C)C)CC1 (centres undefined),49.9
7,CC(C)Cc1cc(C(=O)NCc2cccs2)no1,65.6
8,COc1ccc(C(=O)N/N=C/c2cn[nH]c2-c2ccc(OC)cc2OC)cc1,136
9,O=C(Nc1ccc2c(c1)OCO2)OCc1ccccc1,0.54
10,CCN(c1ccccc1)S(=O)(=O)c1ccc(C(=O)Nc2nnc(C3CC3)o2)cc1,99.2
11,CN(C)c1ccc(NC(=O)COC(=O)c2cc(=O)c3ccccc3o2)cc1,62.8
12,CCCCn1cnc2c([nH]c3ccccc32)c1=O,150
13,COc1ccc(-c2nc3ccccc3s2)cc1O,48.3
14,COc1ccc(S(=O)(=O)NCCc2ccc(F)cc2)cc1,104
15,CCCCn1c(=O)c(CCC(=O)OCC(=O)NCc2ccc(OC)c(OC)c2)nc2ccccc21,76
16,CCOc1ccc(CN(C(=O)c2oc3cc(C)ccc3c2C)C2CCS(=O)(=O)C2)cc1 (centres undefined),45.1
17,Cn1nccc1CNC(=O)c1c(Cl)cnn1C,123

# In another format: entries from further up
row | SMILES | normalized cell count [%]
10 | CCN(c1ccccc1)S(=O)(=O)c1ccc(C(=O)Nc2nnc(C3CC3)o2)cc1 | 99.2
11 | CN(C)c1ccc(NC(=O)COC(=O)c2cc(=O)c3ccccc3o2)cc1 | 62.8
